The test system of this series is ParF (plasmid TP228 (segregation module)). The experiment in a line: fluorescence polarization. The conditions noted are these: 150 mM potassium glutamate (50-350 mM in salt series), pH 7.5, 5 mM magnesium acetate, 5 mM ATP or ADP, 25 C, 1 nM DNA, recombinant protein, label: 5' fluorescein.

For at least one entry, the source does not settle the construct or the ends of the probe. A negative result means that nothing was seen under these conditions. The comparison behind a weaker result is the experiment's own reference, which may not be listed here.

With “AATTACTCAATTACTCAATT (double strand) [20-mer]”, the binding result (5 mM ADP, 5 mM Mg acetate, 150 mM K glutamate) is “no binding”; the binding result (5 mM ATP, 50 to <150 mM K glutamate, Kd in nanomolar range up to 150 mM) is recorded as “binds”; the binding result (5 mM ATP, >150 to 350 mM K glutamate, higher ionic strength inhibited binding) is on record as “binds more weakly”.

On to CAAGAAATAAACC (double strand) [13-mer], for which, where the note is “5 mM ATP, 5 mM Mg acetate, 150 mM K glutamate, loosely associated”, the binding result is “binds more weakly”.

For the sequence “CAAGAAATAAACCAAAAATCGTAATCGAAAGATAAAAATCTG (double strand) [42-mer]”, the binding result (5 mM ATP, 5 mM Mg acetate, 150 mM K glutamate, avid binding) is listed as “binds”.

The values are drawn from article PMC5389482.
